Data as given in PubChem BioAssay AID1259308 (NCATS, 2017).
Assay: 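Candidate targets for better recombinant protein yield in mammalian cells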 (primary screen). Cell system: human HEK293 embryonic kidney cells stably expressing firefly luciferase (HEK-CMV-Luc2-Hygro). Knock-down reagent: single siRNA against human genes, 0.8 pmol siRNA per well. Time to read-out: 72 h. Detection: 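Luciferase light (ONE-Glo) measured on one replicate plate set and viability (CellTiter-Glo) on the other, scaled to a negative control siRNA, with robust z-scores and luciferase per cell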. Direction: total luciferase, z-score and total luciferase, % of control: higher = more reporter protein produced; luciferase per cell, z-score: higher = more reporter output per viable cell; viable cells, % of control: higher = more viable cells. Hit rule: 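An siRNA counts as active if its total luciferase robust z-score exceeds 3; genes with two or more such siRNAs out of three were retested with fresh siRNAs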. Calls: active = raised luciferase; inactive = no rise.
The whole screen tested about 59,000 reagents; this is a part drawn at random. In the full data, about 1,510 (2.6%) are marked active. 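Calls use total luciferase alone and ignore viability, so some active siRNAs may act by altering cell number.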

| target gene | PubChem SID | total luciferase, z-score | total luciferase, % of control | luciferase per cell, z-score | viable cells, % of control | Call |
| --- | --- | --- | --- | --- | --- | --- |
| LEP (leptin) | SID160776569 | 0.466 | 91.2 | 0.515 | 88.9 | inactive |
| LEP (leptin) | SID160776570 | 2.37 | 129 | 1.48 | 97.6 | inactive |
| LEP (leptin) | SID160776571 | 1.01 | 102 | 1.87 | 69.6 | inactive |
| MYH7B (myosin heavy chain 7B) | SID160731607 | 0.423 | 90.3 | 0.61 | 85.9 | inactive |
| MYH7B (myosin heavy chain 7B) | SID160746478 | -1.17 | 58.6 | -1.64 | 101 | inactive |
| MYH7B (myosin heavy chain 7B) | SID160746479 | -0.201 | 77.9 | -0.422 | 97.3 | inactive |
| RPS3AP49 (RPS3A pseudogene 49) | SID160733323 | -0.166 | 78.6 | 0.357 | 79.9 | inactive |
| RPS3AP49 (RPS3A pseudogene 49) | SID160767015 | 1.88 | 119 | 2.46 | 69.7 | inactive |
| RPS3AP49 (RPS3A pseudogene 49) | SID160767016 | -0.233 | 77.3 | -0.468 | 97.6 | inactive |
| KRTAP9-4 (keratin associated protein 9-4) | SID160735141 | 0.328 | 88.4 | 0.226 | 93.1 | inactive |
| KRTAP9-4 (keratin associated protein 9-4) | SID160753149 | 0.492 | 91.7 | -0.204 | 108 | inactive |
| KRTAP9-4 (keratin associated protein 9-4) | SID160753150 | -1.49 | 52.2 | -1.42 | 84.8 | inactive |
| CALM3 (calmodulin 3) | SID160731956 | 1.23 | 106 | 1.1 | 89 | inactive |
| CALM3 (calmodulin 3) | SID160735904 | 0.877 | 99.3 | 0.683 | 92.7 | inactive |
| CALM3 (calmodulin 3) | SID160735915 | 1.21 | 106 | 0.797 | 96 | inactive |
| PARVB (parvin beta) | SID160739165 | -2.06 | 40.9 | -1.44 | 66.9 | inactive |
| PARVB (parvin beta) | SID160739166 | 0.843 | 98.7 | 1.72 | 70.1 | inactive |
| PARVB (parvin beta) | SID160739167 | -0.675 | 68.5 | -0.466 | 86.5 | inactive |
| MMP14 (matrix metallopeptidase 14) | SID160777360 | 0.897 | 99.7 | 0.489 | 98 | inactive |
| MMP14 (matrix metallopeptidase 14) | SID160777361 | -2.31 | 36 | -2.5 | 77.8 | inactive |
| MMP14 (matrix metallopeptidase 14) | SID160777362 | -0.368 | 74.6 | 0.124 | 80.6 | inactive |
| VRTN (vertebrae development associated) | SID160733593 | 0.445 | 90.7 | -0.248 | 108 | inactive |
| VRTN (vertebrae development associated) | SID160743310 | 0.589 | 93.6 | 0.293 | 96.8 | inactive |
| VRTN (vertebrae development associated) | SID160743312 | 1.19 | 106 | 0.218 | 111 | inactive |
| RGS20 (regulator of G protein signaling 20) | SID160720398 | 2.32 | 128 | 1.6 | 94 | inactive |
| RGS20 (regulator of G protein signaling 20) | SID160720399 | -0.334 | 75.2 | -0.334 | 91.8 | inactive |
| RGS20 (regulator of G protein signaling 20) | SID160720400 | 0.47 | 91.2 | 0.0453 | 101 | inactive |
| DTL (denticleless E3 ubiquitin protein ligase adapter) | SID160733511 | 1.26 | 107 | 1.92 | 72.1 | inactive |
| DTL (denticleless E3 ubiquitin protein ligase adapter) | SID160740917 | 0.118 | 84.2 | 0.636 | 79.6 | inactive |
| DTL (denticleless E3 ubiquitin protein ligase adapter) | SID160740918 | -0.751 | 67 | 0.317 | 68.8 | inactive |
| FAM53B (family with sequence similarity 53 member B) | SID160722784 | 0.45 | 90.8 | 0.622 | 86.2 | inactive |
| FAM53B (family with sequence similarity 53 member B) | SID160722786 | 0.417 | 90.2 | 0.0373 | 99.8 | inactive |
| FAM53B (family with sequence similarity 53 member B) | SID160732216 | -2.05 | 41.1 | -1.25 | 63.7 | inactive |
| MYNN (myoneurin) | SID160744594 | 0.963 | 101 | 0.428 | 101 | inactive |
| MYNN (myoneurin) | SID160744595 | 2.01 | 122 | 2.21 | 76.1 | inactive |
| MYNN (myoneurin) | SID160744596 | 0.0529 | 82.9 | 0.106 | 90.1 | inactive |
| ANXA6 (annexin A6) | SID160717875 | -0.652 | 68.9 | -0.863 | 96.7 | inactive |
| ANXA6 (annexin A6) | SID160717885 | -1.46 | 52.8 | -1.66 | 91.3 | inactive |
| ANXA6 (annexin A6) | SID160717896 | 2.08 | 123 | 1.89 | 83.6 | inactive |
| NEDD9 | SID160777941 | -0.177 | 78.4 | -0.0581 | 88.9 | inactive |
| NEDD9 | SID160777942 | 1.59 | 113 | 2.01 | 74.7 | inactive |
| NEDD9 | SID160777943 | 0.152 | 84.9 | 0.21 | 89.8 | inactive |
| FAM171B (family with sequence similarity 171 member B) | SID160760161 | 0.996 | 102 | 0.244 | 107 | inactive |
| FAM171B (family with sequence similarity 171 member B) | SID160760163 | -1.2 | 58 | -0.837 | 80.8 | inactive |
| FAM171B (family with sequence similarity 171 member B) | SID160760164 | -0.105 | 79.8 | -0.0463 | 90.3 | inactive |
| KRABD3 (KRAB domain containing 3) | SID160752465 | 1.65 | 115 | 1.48 | 86.8 | inactive |
| KRABD3 (KRAB domain containing 3) | SID160752466 | 0.432 | 90.5 | 0.425 | 90.4 | inactive |
| KRABD3 (KRAB domain containing 3) | SID160752467 | -0.594 | 70.1 | -0.618 | 92.1 | inactive |
| PRKAR2B | SID160714922 | -0.975 | 62.5 | 0.0325 | 69.2 | inactive |
| PRKAR2B | SID160714924 | -0.537 | 71.2 | -0.466 | 89.9 | inactive |
| PRKAR2B | SID160714925 | -0.159 | 78.7 | 0.11 | 85.5 | inactive |
| LOC100288510 | SID160767426 | -0.778 | 66.4 | 0.000381 | 74.2 | inactive |
| LOC100288510 | SID160767428 | 1.11 | 104 | 0.463 | 103 | inactive |
| LOC100288510 | SID160767429 | -0.249 | 76.9 | -0.991 | 112 | inactive |
| SIPA1L1 (signal induced proliferation associated 1 like 1) | SID160737504 | -0.815 | 65.7 | -0.48 | 83.3 | inactive |
| SIPA1L1 (signal induced proliferation associated 1 like 1) | SID160737505 | 0.655 | 94.9 | 0.594 | 90.7 | inactive |
| SIPA1L1 (signal induced proliferation associated 1 like 1) | SID160737506 | 0.168 | 85.2 | 0.122 | 92.2 | inactive |
| FEZ1 (fasciculation and elongation protein zeta 1) | SID160722679 | -0.649 | 69 | -0.492 | 87.7 | inactive |
| FEZ1 (fasciculation and elongation protein zeta 1) | SID160722680 | -1.46 | 52.9 | -0.523 | 67.8 | inactive |
| FEZ1 (fasciculation and elongation protein zeta 1) | SID160735238 | -0.707 | 67.8 | -0.15 | 78.8 | inactive |
| GRK3 (G protein-coupled receptor kinase 3) | SID160715144 | 1.19 | 106 | 1.1 | 88.2 | inactive |
| GRK3 (G protein-coupled receptor kinase 3) | SID160715153 | 1.21 | 106 | 0.0995 | 115 | inactive |
| GRK3 (G protein-coupled receptor kinase 3) | SID160715159 | 2.36 | 129 | 1.58 | 95 | inactive |
| HINT2 (histidine triad nucleotide binding protein 2) | SID160752587 | 0.0619 | 83.1 | 0.199 | 88.1 | inactive |
| HINT2 (histidine triad nucleotide binding protein 2) | SID160752588 | 0.402 | 89.9 | 0.509 | 87.9 | inactive |
| HINT2 (histidine triad nucleotide binding protein 2) | SID160752589 | 0.101 | 83.9 | 0.764 | 76.7 | inactive |
| ZCCHC8 (zinc finger CCHC-type containing 8) | SID160743857 | 0.568 | 93.2 | 0.251 | 97.5 | inactive |
| ZCCHC8 (zinc finger CCHC-type containing 8) | SID160743858 | 0.0961 | 83.8 | -0.297 | 101 | inactive |
| ZCCHC8 (zinc finger CCHC-type containing 8) | SID160743860 | -1.63 | 49.5 | -1.44 | 80.8 | inactive |
| CELF4 (CUGBP Elav-like family member 4) | SID160745195 | -0.271 | 76.5 | -0.32 | 93 | inactive |
| CELF4 (CUGBP Elav-like family member 4) | SID160745196 | -0.161 | 78.7 | -0.1 | 90.3 | inactive |
| CELF4 (CUGBP Elav-like family member 4) | SID160745199 | 0.328 | 88.4 | 0.778 | 80.5 | inactive |
| ZAP70 (zeta chain of T cell receptor associated protein kinase 70) | SID160718945 | 3.9 | 159 | 2.74 | 86.7 | active |
| ZAP70 (zeta chain of T cell receptor associated protein kinase 70) | SID160718946 | 1.77 | 117 | 1.68 | 84.1 | inactive |
| ZAP70 (zeta chain of T cell receptor associated protein kinase 70) | SID160718947 | 0.643 | 94.7 | 0.333 | 96.9 | inactive |

Targets listed so far whose gene name begins with N or n (3):
| target gene | PubChem SID | total luciferase, z-score | total luciferase, % of control | luciferase per cell, z-score | viable cells, % of control | Call |
| --- | --- | --- | --- | --- | --- | --- |
| NEDD9 | SID160777941 | -0.177 | 78.4 | -0.0581 | 88.9 | inactive |
| NEDD9 | SID160777942 | 1.59 | 113 | 2.01 | 74.7 | inactive |
| NEDD9 | SID160777943 | 0.152 | 84.9 | 0.21 | 89.8 | inactive |
